{"source": "patent US12622910B2", "about": "“Inhibitors of Bruton's tyrosine kinase and methods of their use” (Janssen Pharmaceutica NV, priority 2021, dated 2026)", "tested_on": "LY2298 (CD79b/MyD88 mut)", "assay": "LY2298 DLBCL PDX xenograft study", "type": "in vivo, mice", "conditions": "40 mpk QD, single agent", "method": "FIG. 21 depicts a LY2298 tumor xenograft study with the compound of Formula (III) and venetoclax as single agents and in combination.\nTo evaluate the duration of signaling shutdown and occupancy of BTK protein after compound administration, we determined the amount of free BTK protein in OCI-LY10 DLBCL tumor lysates harvested using an BTK occupancy assay. […] BTK protein occupancy levels remained high with 71%, 94% and 96%, respectively, at 12 hours and 70%, 91% and 85%, respectively after 24 hours. (FIG. 19). The antitumor efficacy of compound of Formula (III) was assessed in mice bearing established SC OCI-LY10 human CD79b mutant DLBCL xenografts in female NSG mice, dosed either once (QD) or twice (BID) a day. Analysis of tumor growth inhibition was performed 14 days into the 21-day treatment period (Day 45) as that was the last day when 2/3 of the vehicle controls remained on the study. Compound of Formula (III) induced tumor growth inhibition in the OCI-LY10 model at all dose levels. […] Taken together, the in vivo data support a first in-human trial of the compound of Formula (III) in combination with Venetoclax in patients with B cell lymphomas.", "note": "For at least one compound, name, drawing or mass did not settle the structure."}
{"molecule": "CC1(C)CCC(CN2CCN(c3ccc(C(=O)NS(=O)(=O)c4ccc(NCC5CCOCC5)c([N+](=O)[O-])c4)c(Oc4cnc5[nH]ccc5c4)c3)CC2)=C(c2ccc(Cl)cc2)C1", "note": "[Venetoclax]", "values": [{"measurement": "Tumor Growth inhibition", "value": "did not show efficacy"}]}
